The target of this experiment is T1, vascular endothelial cadherin (mouse (endogenous in pMECs)) (UniProt P55284).
T1 sequence: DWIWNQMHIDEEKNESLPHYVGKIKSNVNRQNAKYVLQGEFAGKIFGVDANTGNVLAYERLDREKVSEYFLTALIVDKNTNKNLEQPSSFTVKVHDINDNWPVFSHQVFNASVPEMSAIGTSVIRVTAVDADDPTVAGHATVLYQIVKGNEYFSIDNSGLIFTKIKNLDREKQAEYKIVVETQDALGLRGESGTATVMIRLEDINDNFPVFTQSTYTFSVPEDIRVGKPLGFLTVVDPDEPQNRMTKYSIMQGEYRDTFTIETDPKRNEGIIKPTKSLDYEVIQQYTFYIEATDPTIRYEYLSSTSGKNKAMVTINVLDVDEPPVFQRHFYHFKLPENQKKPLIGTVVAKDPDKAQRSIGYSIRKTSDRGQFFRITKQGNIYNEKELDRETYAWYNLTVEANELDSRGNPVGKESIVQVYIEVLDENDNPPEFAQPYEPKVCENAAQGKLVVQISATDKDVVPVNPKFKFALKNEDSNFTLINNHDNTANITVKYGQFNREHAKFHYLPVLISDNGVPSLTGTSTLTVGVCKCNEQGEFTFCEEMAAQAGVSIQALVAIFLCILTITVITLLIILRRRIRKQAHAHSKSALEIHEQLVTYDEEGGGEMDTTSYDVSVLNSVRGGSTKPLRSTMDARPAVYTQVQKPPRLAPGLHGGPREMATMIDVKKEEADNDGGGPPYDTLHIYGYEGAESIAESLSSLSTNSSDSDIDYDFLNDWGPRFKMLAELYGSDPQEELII
As to the kind of experiment: co-IP; VE-Cadherin immunoprecipitates from lysates of F/F and BRAFΔ/Δ pMEC monolayers; Protein G Sepharose with antibody, 4 °C overnight; 25 mM HEPES, 150 mM NaCl, 1 mM EGTA, 0.5% NP-40, 10% glycerol; immunoblot. For orientation: In western blotting, separated proteins are transferred to a membrane and probed.

Results are given in words; binding and its absence hold for the method and conditions named. Binding seen in cells or lysates may run through a third protein. A result given as binding can be weak or reduced; the word gives no strength.

Regarding α catenin (mouse (endogenous in pMECs)), the binding result is “binds”.

Source of the values: publication PMC6617973.
